Tests used:
H1299 (lung carcinoma) = assay: MTT cell viability assay, H1299; conditions: Homo sapiens, NCI-H1299, 48 h, read-out: cell viability
Description: (§1) Cell Culture Conditions. The cell lines were obtained from the American Type Culture Collection (ATCC). PANC-1 and Caco-2 cell lines were maintained in DMEM medium (Gibco); HT-29, HCT-116 and RKO cells were maintained in McCoy's 5A medium (Gibco); and DU-145 and H1299 cells were maintained in RPMI 1640 medium (Gibco), supplemented with 10% fetal bovine serum (FBS; Gibco) and 1% antibiotics (10.00 units/mL penicillin and 10.00 mg/mL streptomycin; Gibco). Cells were preserved in tissue culture flasks at 37° C. and 5% CO2. Culture medium was replaced every three days.
(§2) Cell Viability Assay. The effect of each compound on cell viability was tested using the MTT assay (81). Briefly, 9000 cells/well were grown in 96-well plates for 12 h. Then these cells were incubated with either DMSO (control) or nine different concentration between 0.01-50 μM of the test compounds for 24, 48, and 72 h. Three hours before the termination point, 20 μL of MTT were added to measure cellular viability. The resultant formazan crystals were dissolved in 50 μL of DMSO, and absorbance was measured at 570 nm and 630 nm wavelengths. IC50, GI50, TGI and LC50 values were calculated using OriginPro 8.5.1.
(§3) Evaluation of the antiproliferative activities of the novel molecules. […] These four cell lines were treated with each compound at three concentrations (5, 25 and 50 μM) for 48 h.

HT-29 (CRC) = assay: MTT cell viability assay, HT-29; conditions: Homo sapiens, HT-29, 48 h, read-out: cell viability
Description: as §1, §2, §3

[1] = test system: DU-145 (prostate carcinoma); assay: MTT cell viability assay, DU-145; conditions: Homo sapiens, DU-145, 48 h, read-out: cell viability
Description: as §1, §2, §3

[2] = test system: PANC-1 (pancreatic carcinoma); assay: MTT cell viability assay, Panc-1; conditions: Homo sapiens, PANC-1, 48 h, read-out: cell viability
Description: as §1, §2, §3

With `COc1ccc2cc([C@H](C)C(=O)O)ccc2c1` [Nap, Naproxen, reference compound] the viability at 5 µM (H1299 (lung carcinoma)) was 100 ± 4.9%, the viability at 25 µM (H1299 (lung carcinoma)) was 100% and the viability at 50 µM (H1299 (lung carcinoma)) was 100%. It also gave a viability at 5 µM (HT-29 (CRC)) of 97.2 ± 3.9%, a viability at 25 µM (HT-29 (CRC)) of 99.6 ± 5.5% and a viability at 50 µM (HT-29 (CRC)) of 98.4 ± 3.2%. For the same compound, the viability at 5 µM [1] was 100 ± 8.4%, the viability at 25 µM [1] was 100% and the viability at 50 µM [1] was 100 ± 9.5%. It also gave a viability at 5 µM [2] of 89.6 ± 1.2%, a viability at 25 µM [2] of 91.1 ± 9.8% and a viability at 50 µM [2] of 95.7 ± 26%.

Source: patent US20230219886A1, “NOVEL SELENO-NSAID ANALOGS AND USES THEREOF” (THE PENN STATE RESEARCH FOUNDATION, priority 2020, published 2023)
